From PubChem BioAssay AID720550 (National Center for Advancing Translational Sciences (NCATS), 2013)
The shares of active, inactive and inconclusive entries below differ from those in the screen. Calls follow the shape of the dose curve; as a rule, active = well fitted curve in the direction sought with a large enough effect; inconclusive = small, poorly fitted or top-dose-only effect, or another doubt; inactive = no such curve, though single readings can be large or run the other way. Where the call is inconclusive, the potency comes from a doubtful curve fit.

Test: qHTS for Inhibitors of Bloom's syndrome helicase (BLM): Thiazole Orange DNA Binding Counterscreen for SAR.
Settings: Thiazole orange DNA displacement, fluorescence
Source text: Human RecQ DNA helicases participate in maintenance of genome stability and DNA repair. While other types of helicases have been explored as targets for drug development, members of the RecQ family have remained less well characterized. Mutations of the Bloom helicase gene have been associated with the rare human genetic disease called Bloom syndrome. […] Moreover, identified inhibitors can be used in cells and animal models to examine the consequences of inhibition on the survival of cancer cells where it has been shown that BLM plays an important role.
A fluorescence-based, biochemical assay in 1536 well format was developed to evaluate inhibition of BLM DNA unwinding activity. This assay was used to screen the MLPCN library. The resulting compounds were subjected to orthogonal and secondary biochemical assays to triage the initial hits, to classify compounds based on mode of action and to derive structure activity relationships (SARs) of candidate effectors. The Thiazole Orange (ThO) DNA binding (TO-binding) is used to eliminate inhibitors that operate via nonspecific DNA binding. […]
Compounds were added to a 4 uL mixture of 50 nM DNA and 100 nM ThO via pintool transfer. The fluorescence signal (excitation 480 nm, emission 530 nm) was measured after 15 min incubation at room temperature using the ViewLux CCD imager.

N#Cc1ccc(NC(=O)Nc2nnc(-c3ccncc3)s2)cc1Br
Potency: inconclusive: 1620 nM [inhibitor, full curve]
